No constants are given. Whether binding was seen depends on the method and setting. In cells and extracts the contact can be indirect. These calls come from enrichment with a bait or labelling near it, and not all partners need be listed.
B1: VPS33B (protein, UniProt Q9H267 1-617)
chain: MAFPHRPDAPELPDFSMLKRLARDQLIYLLEQLPGKKDLFIEADLMSPLDRIANVSILKQHEVDKLYKVENKPALSSNEQLCFLVRPRIKNMRYIASLVNADKLAGRTRKYKVIFSPQKFYACEMVLEEEGIYGDVSCDEWAFSLLPLDVDLLSMELPEFFRDYFLEGDQRWINTVAQALHLLSTLYGPFPNCYGIGRCAKMAYELWRNLEEEEDGETKGRRPEIGHIFLLDRDVDFVTALCSQVVYEGLVDDTFRIKCGSVDFGPEVTSSDKSLKVLLNAEDKVFNEIRNEHFSNVFGFLSQKARNLQAQYDRRRGMDIKQMKNFVSQELKGLKQEHRLLSLHIGACESIMKKKTKQDFQELIKTEHALLEGFNIRESTSYIEEHIDRQVSPIESLRLMCLLSITENGLIPKDYRSLKTQYLQSYGPEHLLTFSNLRRAGLLTEQAPGDTLTAVESKVSKLVTDKAAGKITDAFSSLAKRSNFRAISKKLNLIPRVDGEYDLKVPRDMAYVFGGAYVPLSCRIIEQVLERRSWQGLDEVVRLLNCSDFAFTDMTKEDKASSESLRLILVVFLGGCTFSEISALRFLGREKGYRFIFLTTAVTNSARLMEAMSEVKA
B2: C14orf133 (protein, UniProt Q9H9C1 1-493)
chain: MNRTKGDEEEYWNSSKFKAFTFDDEDDELSQLKESKRAVNSLRDFVDDDDDDDLERVSWSGEPVGSISWSIRETAGNSGSTHEGREQLKSRNSFSSYAQLPKPTSTYSLSSFFRGRTRPGSFQSLSDALSDTPAKSYAPELGRPKGEYRDYSNDWSPSDTVRRLRKGKVCSLERFRSLQDKLQLLEEAVSMHDGNVITAVLIFLKRTLSKEILFRELEVRQVALRHLIHFLKEIGDQKLLLDLFRFLDRTEELALSHYREHLNIQDPDKRKEFLKTCVGLPFSAEDSAHIQDHYTLLERQIIIEANDRHLESAGQTEIFRKHPRKASILNMPLVTTLFYSCFYHYTEAEGTFSSPVNLKKTFKIPDKQYVLTALAARAKLRAWNDVDALFTTKNWLGYTKKRAPIGFHRVVEILHKNNAPVQILQEYVNLVEDVDTKLNLATKFKCHDVVIDTYRDLKDRQQLLAYRSKVDKGSAEEEKIDALLSSSQIRWKN
B3: LZTS2 (protein, UniProt Q9BRK4 1-669)
chain: MAIVQTLPVPLEPAPEAATAPQAPVMGSVSSLISGRPCPGGPAPPRHHGPPGPTFFRQQDGLLRGGYEAQEPLCPAVPPRKAVPVTSFTYINEDFRTESPPSPSSDVEDAREQRAHNAHLRGPPPKLIPVSGKLEKNMEKILIRPTAFKPVLPKPRGAPSLPSFMGPRATGLSGSQGSLTQLFGGPASSSSSSSSSSAADKPLAFSGWASGCPSGTLSDSGRNSLSSLPTYSTGGAEPTTSSPGGHLPSHGSGRGALPGPARGVPTGPSHSDSGRSSSSKSTGSLGGRVAGGLLGSGTRASPDSSSCGERSPPPPPPPPSDEALLHCVLEGKLRDREAELQQLRDSLDENEATMCQAYEERQRHWQREREALREDCAAQAQRAQRAQQLLQLQVFQLQQEKRQLQDDFAQLLQEREQLERRCATLEREQRELGPRLEETKWEVCQKSGEISLLKQQLKESQAELVQKGSELVALRVALREARATLRVSEGRARGLQEAARARELELEACSQELQRHRQEAEQLREKAGQLDAEAAGLREPPVPPATADPFLLAESDEAKVQRAAAGVGGSLRAQVERLRVELQRERRRGEEQRDSFEGERLAWQAEKEQVIRYQKQLQHNYIQMYRRNRQLEQELQQLSLELEARELADLGLAEQAPCICLEEITATEI
B4: RAE1 (protein, UniProt P78406 1-368)
chain: MSLFGTTSGFGTSGTSMFGSATTDNHNPMKDIEVTSSPDDSIGCLSFSPPTLPGNFLIAGSWANDVRCWEVQDSGQTIPKAQQMHTGPVLDVCWSDDGSKVFTASCDKTAKMWDLSSNQAIQIAQHDAPVKTIHWIKAPNYSCVMTGSWDKTLKFWDTRSSNPMMVLQLPERCYCADVIYPMAVVATAERGLIVYQLENQPSEFRRIESPLKHQHRCVAIFKDKQNKPTGFALGSIEGRVAIHYINPPNPAKDNFTFKCHRSNGTNTSAPQDIYAVNGIAFHPVHGTLATVGSDGRFSFWDKDARTKLKTSEQLDQPISACCFNHNGNIFAYASSYDWSKGHEFYNPQKKNYIFLRNAAEELKPRNKK
B5: TRIM24 (protein, UniProt O15164 1-1050)
chain: MEVAVEKAVAAAAAASAAASGGPSAAPSGENEAESRQGPDSERGGEAARLNLLDTCAVCHQNIQSRAPKLLPCLHSFCQRCLPAPQRYLMLPAPMLGSAETPPPVPAPGSPVSGSSPFATQVGVIRCPVCSQECAERHIIDNFFVKDTTEVPSSTVEKSNQVCTSCEDNAEANGFCVECVEWLCKTCIRAHQRVKFTKDHTVRQKEEVSPEAVGVTSQRPVFCPFHKKEQLKLYCETCDKLTCRDCQLLEHKEHRYQFIEEAFQNQKVIIDTLITKLMEKTKYIKFTGNQIQNRIIEVNQNQKQVEQDIKVAIFTLMVEINKKGKALLHQLESLAKDHRMKLMQQQQEVAGLSKQLEHVMHFSKWAVSSGSSTALLYSKRLITYRLRHLLRARCDASPVTNNTIQFHCDPSFWAQNIINLGSLVIEDKESQPQMPKQNPVVEQNSQPPSGLSSNQLSKFPTQISLAQLRLQHMQQQVMAQRQQVQRRPAPVGLPNPRMQGPIQQPSISHQQPPPRLINFQNHSPKPNGPVLPPHPQQLRYPPNQNIPRQAIKPNPLQMAFLAQQAIKQWQISSGQGTPSTTNSTSSTPSSPTITSAAGYDGKAFGSPMIDLSSPVGGSYNLPSLPDIDCSSTIMLDNIVRKDTNIDHGQPRPPSNRTVQSPNSSVPSPGLAGPVTMTSVHPPIRSPSASSVGSRGSSGSSSKPAGADSTHKVPVVMLEPIRIKQENSGPPENYDFPVVIVKQESDEESRPQNANYPRSILTSLLLNSSQSSTSEETVLRSDAPDSTGDQPGLHQDNSSNGKSEWLDPSQKSPLHVGETRKEDDPNEDWCAVCQNGGELLCCEKCPKVFHLSCHVPTLTNFPSGEWICTFCRDLSKPEVEYDCDAPSHNSEKKKTEGLVKLTPIDKRKCERLLLFLYCHEMSLAFQDPVPLTVPDYYKIIKNPMDLSTIKKRLQEDYSMYSKPEDFVADFRLIFQNCAEFNEPDSEVANAGIKLENYFEELLKNLYPEKRFPKPEFRNESEDNKFSDDSDDDFVQPRKKRLKSIEERQLLK

Chains of the proteins cited; added tags and fusions are not shown. Lines headed by an entry give the natural chain unless they say otherwise; changes in a name come on top. A line that says so, or that is headed by a name, gives the form on record, which may keep a tag or linker.
BirA*-FLAG-MITF (O75030, form named): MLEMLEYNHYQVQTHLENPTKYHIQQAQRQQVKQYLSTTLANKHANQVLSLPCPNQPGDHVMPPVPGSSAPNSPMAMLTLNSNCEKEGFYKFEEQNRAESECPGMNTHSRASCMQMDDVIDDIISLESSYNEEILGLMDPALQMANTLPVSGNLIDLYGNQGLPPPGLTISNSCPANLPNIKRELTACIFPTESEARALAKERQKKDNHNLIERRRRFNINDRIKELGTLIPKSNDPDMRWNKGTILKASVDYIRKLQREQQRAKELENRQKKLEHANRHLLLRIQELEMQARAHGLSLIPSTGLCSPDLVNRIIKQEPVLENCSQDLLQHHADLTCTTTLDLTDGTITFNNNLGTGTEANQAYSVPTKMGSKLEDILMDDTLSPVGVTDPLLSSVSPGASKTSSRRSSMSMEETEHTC
UniProt Q6ZW49: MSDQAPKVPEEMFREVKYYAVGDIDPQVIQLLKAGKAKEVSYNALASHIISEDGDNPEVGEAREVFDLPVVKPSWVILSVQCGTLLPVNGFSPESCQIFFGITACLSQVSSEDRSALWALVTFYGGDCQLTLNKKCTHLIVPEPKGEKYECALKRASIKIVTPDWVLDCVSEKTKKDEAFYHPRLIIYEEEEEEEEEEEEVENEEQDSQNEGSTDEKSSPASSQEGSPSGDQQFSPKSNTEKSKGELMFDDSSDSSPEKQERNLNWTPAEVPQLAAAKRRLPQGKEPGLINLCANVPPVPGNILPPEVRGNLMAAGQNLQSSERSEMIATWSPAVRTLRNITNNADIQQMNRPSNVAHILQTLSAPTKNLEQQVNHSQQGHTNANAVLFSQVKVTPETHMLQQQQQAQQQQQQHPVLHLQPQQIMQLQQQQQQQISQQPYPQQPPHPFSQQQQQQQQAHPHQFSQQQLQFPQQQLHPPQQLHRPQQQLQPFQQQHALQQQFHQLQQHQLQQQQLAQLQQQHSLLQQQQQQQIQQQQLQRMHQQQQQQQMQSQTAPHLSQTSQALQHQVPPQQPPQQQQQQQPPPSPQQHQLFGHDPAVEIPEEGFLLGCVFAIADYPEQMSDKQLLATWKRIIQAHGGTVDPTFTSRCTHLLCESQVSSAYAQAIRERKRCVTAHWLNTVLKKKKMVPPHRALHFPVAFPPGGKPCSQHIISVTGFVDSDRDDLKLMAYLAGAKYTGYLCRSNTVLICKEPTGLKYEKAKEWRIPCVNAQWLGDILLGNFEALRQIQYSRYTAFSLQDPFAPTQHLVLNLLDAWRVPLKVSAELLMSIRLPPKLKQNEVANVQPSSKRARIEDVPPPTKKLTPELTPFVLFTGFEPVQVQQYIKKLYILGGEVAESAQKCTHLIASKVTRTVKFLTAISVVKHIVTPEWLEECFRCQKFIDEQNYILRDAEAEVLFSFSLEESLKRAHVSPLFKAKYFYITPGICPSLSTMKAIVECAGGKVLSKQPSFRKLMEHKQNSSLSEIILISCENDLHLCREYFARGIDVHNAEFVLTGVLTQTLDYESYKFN
UniProt P05549: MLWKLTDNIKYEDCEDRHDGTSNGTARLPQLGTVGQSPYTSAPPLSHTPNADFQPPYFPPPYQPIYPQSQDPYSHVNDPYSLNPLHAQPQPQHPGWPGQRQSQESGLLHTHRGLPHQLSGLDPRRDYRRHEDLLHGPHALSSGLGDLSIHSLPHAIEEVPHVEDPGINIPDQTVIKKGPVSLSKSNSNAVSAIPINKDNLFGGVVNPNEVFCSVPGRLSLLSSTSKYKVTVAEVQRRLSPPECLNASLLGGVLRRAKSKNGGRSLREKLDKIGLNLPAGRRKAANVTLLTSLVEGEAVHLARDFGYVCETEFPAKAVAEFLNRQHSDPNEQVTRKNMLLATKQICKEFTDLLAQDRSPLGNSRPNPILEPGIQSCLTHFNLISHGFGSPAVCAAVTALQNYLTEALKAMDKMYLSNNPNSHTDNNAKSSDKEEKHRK
UniProt P62330: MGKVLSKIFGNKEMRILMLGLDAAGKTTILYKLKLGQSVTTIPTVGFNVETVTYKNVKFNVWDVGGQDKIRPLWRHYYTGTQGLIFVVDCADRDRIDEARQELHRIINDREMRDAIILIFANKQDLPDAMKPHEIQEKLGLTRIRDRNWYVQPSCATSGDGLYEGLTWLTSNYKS
UniProt P19532: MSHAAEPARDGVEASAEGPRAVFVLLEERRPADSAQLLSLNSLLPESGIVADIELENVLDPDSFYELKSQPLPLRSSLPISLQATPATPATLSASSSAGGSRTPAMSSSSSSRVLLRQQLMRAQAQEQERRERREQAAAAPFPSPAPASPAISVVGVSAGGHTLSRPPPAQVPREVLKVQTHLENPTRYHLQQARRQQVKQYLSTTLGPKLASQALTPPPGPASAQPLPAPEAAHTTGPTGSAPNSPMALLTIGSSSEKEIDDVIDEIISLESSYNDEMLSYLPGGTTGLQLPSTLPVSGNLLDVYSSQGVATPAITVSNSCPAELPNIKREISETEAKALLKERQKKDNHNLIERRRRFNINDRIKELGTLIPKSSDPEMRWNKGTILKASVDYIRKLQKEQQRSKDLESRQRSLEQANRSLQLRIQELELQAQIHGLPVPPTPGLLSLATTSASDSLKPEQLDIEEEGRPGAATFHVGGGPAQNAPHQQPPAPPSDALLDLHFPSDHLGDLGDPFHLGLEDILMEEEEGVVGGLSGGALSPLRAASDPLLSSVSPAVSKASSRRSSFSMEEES
UniProt P51784: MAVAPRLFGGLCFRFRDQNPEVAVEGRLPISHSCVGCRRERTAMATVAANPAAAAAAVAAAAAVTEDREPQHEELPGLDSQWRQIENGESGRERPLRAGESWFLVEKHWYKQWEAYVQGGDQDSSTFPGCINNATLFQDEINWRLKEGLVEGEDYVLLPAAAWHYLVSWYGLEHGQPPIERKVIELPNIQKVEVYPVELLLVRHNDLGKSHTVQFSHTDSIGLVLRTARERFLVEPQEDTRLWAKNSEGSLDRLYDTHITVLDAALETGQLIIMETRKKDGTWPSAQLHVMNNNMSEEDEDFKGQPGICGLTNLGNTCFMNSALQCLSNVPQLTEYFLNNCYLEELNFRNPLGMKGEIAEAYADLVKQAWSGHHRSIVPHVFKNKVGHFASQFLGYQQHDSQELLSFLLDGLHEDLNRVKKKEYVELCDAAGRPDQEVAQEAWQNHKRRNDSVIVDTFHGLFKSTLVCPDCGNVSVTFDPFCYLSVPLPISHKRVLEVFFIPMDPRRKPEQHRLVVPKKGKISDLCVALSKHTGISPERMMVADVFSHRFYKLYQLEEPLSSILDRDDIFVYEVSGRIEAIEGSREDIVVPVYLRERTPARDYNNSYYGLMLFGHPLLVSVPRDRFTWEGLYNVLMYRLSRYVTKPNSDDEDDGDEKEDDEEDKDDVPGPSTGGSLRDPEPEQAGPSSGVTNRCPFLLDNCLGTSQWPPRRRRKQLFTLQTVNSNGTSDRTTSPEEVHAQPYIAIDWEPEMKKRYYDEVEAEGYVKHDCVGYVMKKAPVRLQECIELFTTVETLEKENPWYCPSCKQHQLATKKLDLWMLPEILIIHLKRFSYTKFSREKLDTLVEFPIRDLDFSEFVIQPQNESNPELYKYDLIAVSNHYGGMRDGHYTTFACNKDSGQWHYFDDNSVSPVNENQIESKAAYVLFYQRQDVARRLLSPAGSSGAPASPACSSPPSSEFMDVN
UniProt O60934: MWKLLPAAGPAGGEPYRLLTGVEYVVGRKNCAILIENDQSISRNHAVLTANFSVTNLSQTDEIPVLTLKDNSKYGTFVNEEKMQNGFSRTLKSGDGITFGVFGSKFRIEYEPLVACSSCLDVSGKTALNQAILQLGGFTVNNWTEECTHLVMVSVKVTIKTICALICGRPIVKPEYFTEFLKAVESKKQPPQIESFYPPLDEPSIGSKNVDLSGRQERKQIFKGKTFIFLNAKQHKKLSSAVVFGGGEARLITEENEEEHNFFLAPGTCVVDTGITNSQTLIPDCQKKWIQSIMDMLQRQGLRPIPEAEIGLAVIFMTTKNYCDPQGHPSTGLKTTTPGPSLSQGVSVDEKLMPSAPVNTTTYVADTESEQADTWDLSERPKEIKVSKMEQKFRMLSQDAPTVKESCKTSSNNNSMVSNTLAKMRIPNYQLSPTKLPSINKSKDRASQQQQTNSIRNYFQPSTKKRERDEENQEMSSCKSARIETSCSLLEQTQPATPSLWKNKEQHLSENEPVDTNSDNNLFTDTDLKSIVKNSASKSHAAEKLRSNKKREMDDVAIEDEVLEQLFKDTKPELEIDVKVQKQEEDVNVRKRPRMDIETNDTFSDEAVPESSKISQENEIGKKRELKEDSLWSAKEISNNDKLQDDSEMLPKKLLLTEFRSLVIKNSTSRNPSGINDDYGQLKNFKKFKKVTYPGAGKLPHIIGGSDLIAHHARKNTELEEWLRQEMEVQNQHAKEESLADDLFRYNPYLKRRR
UniProt Q14686: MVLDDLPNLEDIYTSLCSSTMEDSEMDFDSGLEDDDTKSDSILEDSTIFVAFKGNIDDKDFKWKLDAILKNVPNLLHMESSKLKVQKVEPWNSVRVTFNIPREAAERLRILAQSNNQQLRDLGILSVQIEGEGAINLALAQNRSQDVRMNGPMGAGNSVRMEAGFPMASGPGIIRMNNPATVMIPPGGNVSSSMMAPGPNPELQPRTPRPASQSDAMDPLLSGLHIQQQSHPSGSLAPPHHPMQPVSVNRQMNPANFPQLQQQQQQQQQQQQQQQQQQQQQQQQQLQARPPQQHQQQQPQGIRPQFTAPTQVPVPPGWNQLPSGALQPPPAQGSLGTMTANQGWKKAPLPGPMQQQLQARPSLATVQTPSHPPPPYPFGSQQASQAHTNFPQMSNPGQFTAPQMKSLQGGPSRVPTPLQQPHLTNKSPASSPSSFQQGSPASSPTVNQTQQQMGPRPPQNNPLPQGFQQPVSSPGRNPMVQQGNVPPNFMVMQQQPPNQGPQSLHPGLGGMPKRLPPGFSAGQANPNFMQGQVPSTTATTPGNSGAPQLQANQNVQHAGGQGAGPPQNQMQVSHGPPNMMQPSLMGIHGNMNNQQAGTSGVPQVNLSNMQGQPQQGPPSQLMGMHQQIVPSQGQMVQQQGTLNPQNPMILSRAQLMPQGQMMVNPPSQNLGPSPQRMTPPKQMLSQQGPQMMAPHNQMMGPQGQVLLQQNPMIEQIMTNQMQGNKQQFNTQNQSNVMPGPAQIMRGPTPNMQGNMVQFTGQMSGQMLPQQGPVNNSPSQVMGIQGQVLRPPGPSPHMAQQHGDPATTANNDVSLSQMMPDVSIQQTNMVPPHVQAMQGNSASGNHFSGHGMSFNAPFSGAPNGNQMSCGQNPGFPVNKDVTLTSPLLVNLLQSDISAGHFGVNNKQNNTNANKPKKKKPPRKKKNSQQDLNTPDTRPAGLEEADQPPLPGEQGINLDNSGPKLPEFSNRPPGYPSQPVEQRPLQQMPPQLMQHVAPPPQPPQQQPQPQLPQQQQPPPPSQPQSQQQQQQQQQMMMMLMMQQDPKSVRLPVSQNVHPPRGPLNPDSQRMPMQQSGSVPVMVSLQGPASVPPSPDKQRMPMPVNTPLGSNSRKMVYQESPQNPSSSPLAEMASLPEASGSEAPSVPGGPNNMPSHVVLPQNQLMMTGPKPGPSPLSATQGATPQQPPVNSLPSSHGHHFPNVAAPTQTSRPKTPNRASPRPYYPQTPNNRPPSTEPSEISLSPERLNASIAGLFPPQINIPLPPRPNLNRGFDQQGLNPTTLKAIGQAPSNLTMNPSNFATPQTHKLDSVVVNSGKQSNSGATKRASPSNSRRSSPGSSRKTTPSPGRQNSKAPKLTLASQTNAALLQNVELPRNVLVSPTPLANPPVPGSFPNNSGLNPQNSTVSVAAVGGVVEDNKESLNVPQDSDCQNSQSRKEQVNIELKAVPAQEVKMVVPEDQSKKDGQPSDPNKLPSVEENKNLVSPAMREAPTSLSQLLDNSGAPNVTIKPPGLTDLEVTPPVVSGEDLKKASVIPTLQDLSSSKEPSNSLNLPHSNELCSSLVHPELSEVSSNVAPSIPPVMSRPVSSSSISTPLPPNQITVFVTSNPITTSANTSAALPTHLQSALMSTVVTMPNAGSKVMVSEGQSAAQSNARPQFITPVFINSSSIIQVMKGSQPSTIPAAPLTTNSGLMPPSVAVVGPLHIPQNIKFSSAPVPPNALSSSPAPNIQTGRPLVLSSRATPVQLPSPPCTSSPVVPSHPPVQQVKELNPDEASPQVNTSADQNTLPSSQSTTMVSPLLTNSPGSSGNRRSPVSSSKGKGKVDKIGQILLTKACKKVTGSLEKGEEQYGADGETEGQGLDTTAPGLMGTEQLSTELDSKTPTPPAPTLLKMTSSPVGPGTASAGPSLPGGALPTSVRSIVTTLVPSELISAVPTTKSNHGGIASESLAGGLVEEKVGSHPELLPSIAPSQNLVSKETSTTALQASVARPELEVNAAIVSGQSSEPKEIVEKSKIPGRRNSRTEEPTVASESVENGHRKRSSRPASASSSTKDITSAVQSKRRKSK

Target: BirA*-FLAG-MITF (human) (UniProt O75030)
Test: proximity labelling; BioID in HEK293 cells stably expressing doxycycline-inducible BirA*-FLAG-MITF (control BirA*-FLAG-NLS), untreated or treated with CPT (20 nM, 4 h); biotinylated proteins captured on streptavidin-Sepharose beads 3 h at 4°C, mass spectrometry; SAINTexpress, 1% false discovery …

Molecule	binding
PAXIP1 (from UniProt Q6ZW49 1-1069)	binds
TFAP2A (from UniProt P05549 1-437)	binds
SMARCA2 (from UniProt P51531 1-1590)	binds
NCOA2 (from UniProt Q15596 1-1464)	binds
ARF6 (from UniProt P62330 1-175)	binds
TFE3 (from UniProt P19532 1-575)	binds
KRI1 (from UniProt Q8N9T8 1-703)	binds
USP11 (from UniProt P51784 1-963)	binds
BRPF1 (from UniProt P55201 1-1214)	binds
NBS1 (endogenous) (from UniProt O60934 1-754)	binds
RAD50 (endogenous) (from UniProt Q92878 1-1312)	binds
PIAS1 (from UniProt O75925 1-651)	binds
NCOA6 (from UniProt Q14686 1-2063)	binds
B1	binds
B2	binds
B3	binds
B4	binds
B5	binds
